Results as given in PubChem BioAssay AID504648 (National Center for Advancing Translational Sciences (NCATS), 2011).
About 610 (0.16%) of roughly 390,000 compounds were called active. Inconclusive means that the source gave no clear call. Such entries were picked first, then a sample of the others. The call rests on the fitted dose curve; in most records, active means well fitted inhibition curve with a large enough effect; inconclusive means small, poorly fitted or top-dose-only effect, or effect the other way, or another doubt; inactive means no such curve, though single readings can be large or run the other way. A potency beside an inconclusive call is a rough fit, not a confirmed value.

assay: Nrf2 qHTS screen for inhibitors: counterscreen for cytotoxicity; details: A549 ARE-Fluc cells, CellTiter-Fluor viability, 18-24 h; activity change, negative = cytotoxicity: at 46 µM (top of the series)
Outline: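 A549 ARE-Fluc cells in 5% FBS OPTI-MEM, 5000 cells/well, rested 2 h then exposed to compounds in concentration-response for 18-24 h at 37 °C. Viability by CellTiter-Fluor fluorescence (Ex 405/Em 525) after 30 min; luciferase luminescence (BugLite, 15 min, RT) read afterwards.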
On the % scale 0 is the no-effect control and ±100 the full control effect; potency means the concentration at half of the fitted maximal effect.

| SMILES | Potency | activity change, negative = cytotoxicity |
| --- | --- | --- |
| O=C(NCc1ccc2c(c1)OCO2)c1cc([N+](=O)[O-])ccc1N1CCOCC1 | inconclusive: 8.2 µM [falling, partial curve, poor fit] |  |
| C=CCN1C(=O)C(C)S/C1=N\S(=O)(=O)c1ccc(Cl)cc1 (stereo unspecified) | inconclusive: 7.31 µM [activator, partial curve, poor fit] |  |
| COc1ccc(OC)c(/C=C/c2c([N+](=O)[O-])c(=O)n(C)c(=O)n2C)c1 |  | inactive: 0.194% |
| c1coc(CNc2nc3nonc3nc2NCc2ccco2)c1 | inactive |  |
| C[n+]1ccccc1/C=C/c1c(F)cccc1F | inconclusive: 3.66 µM [falling, full curve] |  |
| COc1ccc(C2Nc3ccccc3-n3c(-c4ccccc4)c4c(=O)n(C)c(=O)n(C)c4c32)cc1 (stereo unspecified) | inconclusive: 6.51 µM [activator, full curve, poor fit] |  |
| S=C1SCN(CC2CC2)CN1CC1CC1 |  | inactive: 3.44% |
| C=C1[C@@H](O)[C@@H]2O[C@]3(CC[C@H](/C=C/[C@@H](C)[C@@H]4CC(C)=CC5(O[C@H](C[C@@](C)(O)C(=O)OC)CC[C@H]5O)O4)O3)CC[C@H]2O[C@@H]1[C@@H](O)C[C@H](C)[C@H]1OC2(CCCCO2)CC[C@H]1C (stereo partly specified) | inconclusive: 0.058 µM [falling, full curve, poor fit] |  |
| C=CC[n+]1c(/C=C2\C=Cc3cc(C)ccc3N2CC)ccc2ccccc21 | inconclusive: 20.6 µM [falling, single point] |  |
| COc1ccc(-c2cc(C(=O)Nc3cc(C)n(Cc4ccc(Cl)cc4)n3)no2)cc1OC |  | inactive: -28.4% |
| COc1ccc(OC)c(NC(=O)CCN2C(=O)c3cccc([N+](=O)[O-])c3C2=O)c1 | inconclusive: 16.4 µM [falling, partial curve, poor fit] |  |
| O=C(CC1C[C@H](C(=O)N2CCOCC2)[C@@]2(CCC3CCCC3)c3[nH]c4ccccc4c3CCN2C1=O)NCC12CC3CC(CC(C3)C1)C2 (stereo partly specified) | inconclusive: 29.1 µM [falling, partial curve, poor fit] |  |
| Nc1cc[n+](CC(=O)c2ccc3c(c2)OCCO3)cc1 | inconclusive: 5.17 µM [falling, partial curve] |  |
| CCOc1ccc(C(O)Cn2c(=N)n(CCN3CCCCC3)c3ccccc32)cc1 (stereo unspecified) | inconclusive: 13 µM [falling, partial curve] |  |
| COc1ccc2[nH]c(=O)c(CNc3cc(C)ccc3C)cc2c1 | inconclusive: 32.6 µM [falling, partial curve, poor fit] |  |
| O=C(CSc1ccccc1)Nc1ccc(Cl)c(S(=O)(=O)N2CCOCC2)c1 |  | inactive: -20% |

Sorted by number of heavy atoms (largest number first): 3 of the compounds above

| SMILES | Potency | activity change, negative = cytotoxicity |
| --- | --- | --- |
| COc1ccc(OC)c(NC(=O)CCN2C(=O)c3cccc([N+](=O)[O-])c3C2=O)c1 | inconclusive: 16.4 µM [falling, partial curve, poor fit] |  |
| O=C(NCc1ccc2c(c1)OCO2)c1cc([N+](=O)[O-])ccc1N1CCOCC1 | inconclusive: 8.2 µM [falling, partial curve, poor fit] |  |
| C=CC[n+]1c(/C=C2\C=Cc3cc(C)ccc3N2CC)ccc2ccccc21 | inconclusive: 20.6 µM [falling, single point] |  |
